Assay results published in patent publication US20040191910.
For at least one entry, the source does not settle the construct or the ends of the probe.

Protein sequences, listed by entry. Tags and fused reporters are not part of them. Chains listed by the source or under a name are the forms on record and can include a tag or linker.
UniProt A2Z389, other isoform, or with tags, fused parts or gaps: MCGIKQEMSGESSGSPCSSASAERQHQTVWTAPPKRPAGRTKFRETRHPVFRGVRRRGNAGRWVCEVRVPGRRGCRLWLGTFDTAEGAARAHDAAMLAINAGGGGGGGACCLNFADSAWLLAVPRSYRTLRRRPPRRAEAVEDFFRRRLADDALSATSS
UniProt Q64MA1, other isoform, or with tags, fused parts or gaps: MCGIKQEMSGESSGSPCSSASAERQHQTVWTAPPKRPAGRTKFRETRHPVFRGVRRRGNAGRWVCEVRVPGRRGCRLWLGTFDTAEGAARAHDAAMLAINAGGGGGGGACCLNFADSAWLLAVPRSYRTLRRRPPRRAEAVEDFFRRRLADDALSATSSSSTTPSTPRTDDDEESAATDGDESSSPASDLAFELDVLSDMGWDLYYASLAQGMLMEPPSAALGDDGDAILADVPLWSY

What was measured:
OsDREB1A (Oryza sativa) [1] = target: OsDREB1A (Oryza sativa) (UniProt A2Z389); test: EMSA; details: room temperature 20 min, 5% PAGE 0.25x TBE; purified recombinant protein; protein details: N-terminal GST (pGEX-4T-1), cDNA nt 69-545; label: 32P
OsDREB1A (Oryza sativa) [2] = target: OsDREB1A (Oryza sativa) (UniProt Q64MA1); test: activity in cells; details: rice protoplast GUS/LUC transactivation; protein in cells; variant of DRE 75 bp fragment of rd29A promoter

Sequence | binding result (OsDREB1A (Oryza sativa) [1]) | activity on this sequence (OsDREB1A (Oryza sativa) [2])
ACATCAGTTTGAAAGAAAAGGGAAAAAAAGAAAAAATAAATAAAAGATATACTACCGACATGAGTTCCAAAAAGC (double strand) [DRE 75 bp fragment of rd29A promoter] | binds | 
ACATCAGTTTGAAAGAAAAGGGAAAAAAAGAAAAAATAAATAAAAGATATACTACCGACATGAGTTCCAAAAAGCACATCAGTTTGAAAGAAAAGGGAAAAAAAGAAAAAATAAATAAAAGATATACTACCGACATGAGTTCCAAAAAGC (double strand) |  | active
